Results as given in patent US12297293B2 (NANTONG UNIVERSITY, priority 2021, dated 2025).
Ends that are not written are not given here.

Legend:
[1] = general procedure: Fmoc solid-phase peptide synthesis; Wang resin; N,N-diisopropylethylamine/1-hydroxybenzotriazole/O-benzotriazole-tetramethyluron; conditions: whole synthesis
[2] = general procedure: Fmoc solid-phase peptide synthesis; wang resin; N,N-diisopropylethylamine/1-hydroxybenzotriazole/O-benzotriazole-tetramethyluron; conditions: whole synthesis

Sequence	isolated yield [1] [%]	final purity (method not given) [2] [%]
SYGGADYKR	40	97
MISYGGADY	45	99
VYRCMISYG	38	98
YRCMISYGG	35	99
YGGADYKRI	42	98
